Test results reported in the supplement of paper PMC12889115.
The other results are listed elsewhere or left out. Values are raw readings; no control value is given beside them.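 Primary screen: polymyxin B was added at a level permeabilizing Salmonella outer membranes while sparing inner membranes. DMSO wells, both with and without polymyxin B, established maximum growth. Plate-to-plate variation meant each plate was ranked on its own, and the lowest-OD600 compounds were selected as hits.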

System: Salmonella enterica serovar Typhimurium SL1344
Experiment: bacterial growth OD600 after 18 h with compound and polymyxin B; higher = more bacterial growth (less inhibition)
Conditions: 50 µM, Mueller-Hinton broth

Compound	bacterial growth OD600 (polymyxin B 1 µg/mL)	bacterial growth OD600 (polymyxin B 0.75 µg/mL)
O=C(c1cccs1)N1CCC2(CCCN(Cc3cccnc3)C2=O)C1 (stereo not drawn)	0.891	
COc1ccc(CCN2CCCC(CN(C)Cc3csc(C(C)=O)c3)C2)cc1 (stereo not drawn)		0.842
O=C(Cc1cc(F)cc(F)c1)NCCN1Cc2ccccc2OC(c2ccccc2)C1 (stereo not drawn)		0.048
O=C(NCC1CCCN(C(=O)c2ccc3[nH]ccc3c2)C1)c1ccccc1Cl (stereo not drawn)	0.918	
CCc1cc(C(=O)N(CCN2CCCCC2)CC2CCCN(C3CCCC3)C2)n(C)n1 (stereo not drawn)	0.848	
Cc1nonc1CC(=O)N1CCC(CCC(=O)N(C)Cc2ccccc2)CC1	0.964	
COc1cccc(CC2(CO)CCCN(Cc3c[nH]nc3C3CCCCC3)C2)c1 (stereo not drawn)	0.782	
Cc1ccc(OCCN(C)C(=O)CCC2(Cc3ccc(Cl)cc3)CCC(=O)N2)cc1 (stereo not drawn)		0.812
